Measurements reported in doi:10.1101/481507.
These are yes or no findings as the source states them, for the method shown. Binding seen in cells or lysates may run through a third protein. Here binding means that the protein was enriched with, or labelled near, the bait; the list need not be complete.

Amino acid sequences for entries named in this document (tags omitted).
UniProt P29352: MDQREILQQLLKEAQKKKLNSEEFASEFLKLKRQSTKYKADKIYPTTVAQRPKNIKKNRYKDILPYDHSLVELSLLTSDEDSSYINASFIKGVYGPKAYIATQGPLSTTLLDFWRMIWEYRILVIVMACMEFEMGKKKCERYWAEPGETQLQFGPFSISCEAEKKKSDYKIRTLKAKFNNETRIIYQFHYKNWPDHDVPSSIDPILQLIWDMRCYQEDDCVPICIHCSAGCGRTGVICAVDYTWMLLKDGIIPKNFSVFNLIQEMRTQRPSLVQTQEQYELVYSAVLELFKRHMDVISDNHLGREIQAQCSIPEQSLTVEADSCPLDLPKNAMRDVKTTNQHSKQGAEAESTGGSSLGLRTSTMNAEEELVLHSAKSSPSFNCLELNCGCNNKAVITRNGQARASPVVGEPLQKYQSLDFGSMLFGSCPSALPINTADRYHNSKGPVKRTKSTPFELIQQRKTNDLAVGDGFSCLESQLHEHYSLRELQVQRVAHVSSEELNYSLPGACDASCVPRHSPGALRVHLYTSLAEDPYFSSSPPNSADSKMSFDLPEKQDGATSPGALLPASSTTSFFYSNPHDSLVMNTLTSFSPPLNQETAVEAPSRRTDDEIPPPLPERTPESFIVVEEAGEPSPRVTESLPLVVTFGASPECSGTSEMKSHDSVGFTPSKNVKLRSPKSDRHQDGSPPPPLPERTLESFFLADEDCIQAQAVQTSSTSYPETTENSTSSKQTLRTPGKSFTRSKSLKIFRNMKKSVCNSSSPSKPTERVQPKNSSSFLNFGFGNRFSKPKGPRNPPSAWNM
UniProt Q61166: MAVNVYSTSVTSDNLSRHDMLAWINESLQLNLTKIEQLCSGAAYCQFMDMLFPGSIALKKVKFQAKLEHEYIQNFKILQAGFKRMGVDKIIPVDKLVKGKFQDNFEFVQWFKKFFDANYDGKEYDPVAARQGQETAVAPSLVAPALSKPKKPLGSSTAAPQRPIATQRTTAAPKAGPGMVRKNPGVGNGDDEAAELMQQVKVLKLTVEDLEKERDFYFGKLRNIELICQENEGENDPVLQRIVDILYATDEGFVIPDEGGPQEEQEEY
UniProt Q15691: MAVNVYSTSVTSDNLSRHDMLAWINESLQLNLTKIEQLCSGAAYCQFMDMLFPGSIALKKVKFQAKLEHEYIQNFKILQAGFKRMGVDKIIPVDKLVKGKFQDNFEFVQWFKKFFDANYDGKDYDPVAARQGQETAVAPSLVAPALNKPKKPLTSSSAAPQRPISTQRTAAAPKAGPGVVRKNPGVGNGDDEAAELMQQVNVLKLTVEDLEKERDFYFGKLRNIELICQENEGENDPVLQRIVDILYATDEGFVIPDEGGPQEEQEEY

Legend:
[1] = target: endogenous PTPN22 (mouse cells) (mouse (endogenous in BI-141 and RAW 264.7)) (UniProt P29352); assay: affinity purification with mass spectrometry
PTPN22-Flag WT = PTPN22-Flag WT (UniProt P29352); assay: affinity purification with mass spectrometry

| Substance | binding [1] | binding (PTPN22-Flag WT) |
| --- | --- | --- |
| endogenous EB1 (mouse cells) (from UniProt Q61166 1-268) | binds | – |
| endogenous EB1 (human cells) (from UniProt Q15691 1-268) | – | binds |
